Mtb cholesterol medium: 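Whole-cell growth test on Mycobacterium tuberculosis, read after 4 days in a medium based on cholesterol and the lipid DPPC; the read-out is not stated. Compounds at 50 µM. Higher reads as more growth inhibition (inferred: compounds with an IC50 in retests scored well above the rest). Of about 69,000 compounds tested this way, about 370 (0.54%) reached 50% or more in at least one test.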
Mtb glucose medium: 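Growth of Mycobacterium tuberculosis over 3 days (7H9 medium with glucose and tyloxapol); the read-out is not stated. Compounds at 50 µM. Higher reads as more growth inhibition (inferred: compounds with an IC50 in retests scored well above the rest). Of about 69,000 compounds tested this way, about 760 (1.1%) reached 50% or more in at least one test.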

Values are the deposited “Percent Effect”, in %.
How 0% and 100% were set is not recorded. Most values in the screen are low, and negative values occur.
This is an unselected part of the compounds tested.
Two or more numbers in one place are separate tests of the same structure; such repeats can differ widely.

structure | Mtb cholesterol medium | Mtb glucose medium
CC(C)Cc1cc(C(=O)NCCn2nc3ccccn3c2=O)[nH]n1 | -9.342 | -12.13
COc1cc(CCC(=O)NC(C)C(=O)O)ccc1OCC(F)(F)F (stereo not shown) | -15.96 | 3.727
CS(=O)(=O)N1CCCC(C(=O)Nc2cnn(COCC(F)(F)F)c2)C1 (stereo not shown) | -3.106 | 4.196
CC(C)CCC(C)NC(=O)c1ccc(OCC(N)=O)cc1 (stereo not shown) | 2.692 | -24.23
CCOc1ccccc1NC(=O)NCCc1ccoc1 | -1.962 | 11.87
[H][C@]12CCN(c3ncccc3C)C[C@]1(COC)CC[C@@H](N1CCOCC1)C2 | 1.015 | -0.2352
O=C1NCCC12CN(CC1CC1)CC21CCNCC1 (stereo not shown) | -1.441 | -15.65
Cc1cc(S(=O)(=O)NCC(C)(O)CN(C)C)c(F)cc1F (stereo not shown) | 7.332 | -8.778
Cc1nc(CNCC2CCCN2c2cccnn2)no1 (stereo not shown) | 25.22 | 23.55
CN(C)C(=O)c1ccc2c(c1)nc(N1CC[C@H](O)C1)n2C | -2.831 | 2.14
CS(=O)(=O)N1CCCC(C(=O)Nc2cnn(Cc3ccc(F)cc3)c2)C1 (stereo not shown) | 7.154 | -5.394
Cc1c(C(=O)O)oc2ccc(I)cc12 | -9.517 | -30.94
COc1cccc(OCC(=O)NS(=O)(=O)c2cccnc2)c1 | 10.8 | 3.207
Cc1ccccc1C1CCN(CCn2cc(-c3nccs3)nn2)C1 (stereo not shown) | -57.82 | -38.89
Cc1nc(C)c(CC(=O)Nc2nnc(C)s2)c(=O)[nH]1 | -8.453 | -16.95
Cc1ccc(-c2nn3c(nc2=O)-c2ccccc2NC3C(=O)O)cc1C (stereo not shown) | -4.33 | -15.81
c1cc2n(n1)CC(CNCc1ccc(OC3CCCCC3)nc1)CN2 (stereo not shown) | -20.33 | 18.96
CNC(=O)c1cccc(NC(=O)CN2CCCN(S(C)(=O)=O)CC2)c1 | -6.806 | -27.74 & -4.884
CCOCCSc1nnc(Cc2ccccc2F)o1 | 64.66 & 60.02 | 77.31
Cc1ccnc(N2CCC(C(N)=O)CC2)n1 | -37.34 | -85.37
COc1ccc(C(=O)NCCCNc2ncccn2)c(OC)c1 | -4.266 | -20.8
Cc1cc(C(=O)N(CC(F)(F)F)C2CCOCC2)c(C)o1 | 7.498 | 2.018 & -1.44
c1cnn(CCNCc2csc(-c3ccsc3)n2)c1 | -12.71 | -23.98
COc1c(CNCCC(=O)NC2CCCCC2)c(C(C)C)nn1C | 1.947 | -0.0137
CC(Cn1cccn1)NC(=O)NCc1ccc(C(N)=O)cc1 (stereo not shown) | 16.33 | -7.097
COc1ccc(C(=O)C2CCCN(c3cnccn3)C2)c(C)c1 (stereo not shown) | -15.93 | 22.19
Cc1cc2c(=O)n3c(nc2s1)CCN(Cc1cnc(C(C)C)nc1)CC3 | 20.17 | 41.92
COc1cccc(COCC(=O)N2CCCC(n3cccn3)C2)c1 (stereo not shown) | -0.7468 | -34.79
CCNc1ncc(C(=O)NCc2cccc(OC(F)(F)F)c2)cn1 | 7.602 | 16.59
O=C(c1cccc2c1OCCO2)N1CCCC(n2ccnc2)C1 (stereo not shown) | 1.727 | 8.47
Cc1noc(C)c1CN(C)C(=O)NC1CCCN(S(C)(=O)=O)C1 (stereo not shown) | -15.07 | -23.91
[H][C@@]12C[C@H](O)CCN1C(=O)CN(CCOC)C2=O | -9.315 | -4.616
c1cnc2[nH]c(C3CCCC3)c(CN3CCCCC3)c2c1 | 2.952 | -9.612
CN(Cc1cc(Br)cn1C)C(=O)Cc1cccnc1 | 9.773 | -10.58 & 2.625
Cc1nc(C)c(CC(=O)NCc2ccc(F)cc2)s1 | 8.298 | 29.65 & 23.01
O=C(Cc1ccc2c(c1)OCCO2)NCCc1nnc2n1CCC2 | -25.02 | -9.889
COc1ccc(-c2nnc(CN3CCCC3Cn3cncn3)o2)cc1 (stereo not shown) | -22.2 | -12.35
CCOc1ccccc1-c1cc2c(cc1C(N)=O)OCO2 | -13.93 | -1.452 & -1.596
O=C(O)C(F)(F)F.[H][C@]12CCN(C(=O)C3CCOCC3)[C@@]1([H])CCC(=O)N2Cc1ccncc1 | 15.84 | 1.919
COc1ccc(Cl)cc1CC(=O)N1CCN(CCO)CC1 | -16.02 | 12.72
CNc1nc2c(s1)C(c1ccccc1F)CC(=O)N2 (stereo not shown) | -6.576 | 0.8855
c1ccc(OCCCN2CCOC(CNc3cccnn3)C2)cc1 (stereo not shown) | 3.145 | 16.96
CCc1nc(N2CCCC(O)(CO)CC2)ncc1C (stereo not shown) | -9.865 | 14.7
CC(C)c1nccn1CCCNC(=O)c1ccc(N(C)C)nc1 | 12.84 | 35.64
CNc1cccc(C2CCCN(C(=O)c3cncs3)C2)n1 (stereo not shown) | 18.07 | 14.5
O=C(NCC(F)F)c1ccc(S(=O)(=O)NCCc2cn[nH]c2)cc1 | 21.68 | -1.797
CCOC(=O)N1CCCC2(CCN(Cc3ccccc3C#N)C2)C1 (stereo not shown) | 3.165 | 12.95
CC(C)c1noc(CCC(=O)Nc2cc(C(F)(F)F)c[nH]c2=O)n1 | -5.812 | -22.27
CS(=O)(=O)N1CCc2ccc(C(=O)N3CCn4ncnc4C3)cc21 | 7.281 & 16.9 | -20.89
CCOC(=O)NC1CCCN(Cc2ccc(-n3cncn3)c(C)c2)C1 (stereo not shown) | 0.4328 | 2.876 & 1.436
COCC(C)NS(=O)(=O)c1ccc(Br)cn1 (stereo not shown) | -5.426 | -9.793
COc1ccccc1CNC(=O)C(C)N1CC(n2nc(C)cc2C)C1 (stereo not shown) | -9.406 | -11.9 & -3.153

Data taken from ChEMBL document CHEMBL3988442, “University of Dundee, Small-Polar-MMV Screening Library” (2021).